Consider 94 compounds from PubChem BioAssay AID651660 (Broad Institute, 2012).

Amino acid sequences for entries named in this document (tags omitted). A change or cut given only in a name is not applied to a line headed by its entry.
UniProt P43351: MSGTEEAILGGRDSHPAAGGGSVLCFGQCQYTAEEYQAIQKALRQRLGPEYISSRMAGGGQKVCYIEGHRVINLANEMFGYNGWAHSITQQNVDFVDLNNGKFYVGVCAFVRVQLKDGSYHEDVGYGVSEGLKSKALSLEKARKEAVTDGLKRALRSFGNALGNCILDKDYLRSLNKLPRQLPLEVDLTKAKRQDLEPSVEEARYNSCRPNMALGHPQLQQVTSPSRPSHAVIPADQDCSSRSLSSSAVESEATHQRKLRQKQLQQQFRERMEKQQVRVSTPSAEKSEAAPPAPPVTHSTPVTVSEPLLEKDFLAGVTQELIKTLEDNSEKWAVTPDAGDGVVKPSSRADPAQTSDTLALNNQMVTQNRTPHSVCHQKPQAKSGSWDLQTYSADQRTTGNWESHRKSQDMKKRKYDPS

Where “and” joins values, the source holds several entries; their conditions need not be identical. Equal entries are not always repeated. Out of some 1,900 compounds screened, about 15 (0.8%) were called active.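 Rule for the calls: active = every replicate shows at least 50% inhibition; inconclusive = mean inhibition at least 50% but some replicate below; inactive = the rest.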 This is one part of the list. Residues, ends and D or L forms follow the SMILES beside them. *: point of attachment. Boc = CC(C)(C)OC(=O)*; OBn = c1ccc(CO*)cc1

The assay concerns the target DNA repair protein RAD52 homolog (Homo sapiens) (UniProt P43351). Description: RAD52 ssDNA annealing inhibitors, primary screen, biochemical, FRET, single point (AID 651660).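 Note: 0% = median of neutral control wells and 100% = median of positive control wells.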 As to conditions: Recombinant RAD52 ssDNA annealing, FRET fluorescence, 30 min; at 18.7 µM; active compounds read high.
`O=C(O)CCCN1C(=O)NC2NC(=O)NC21` (centres undefined): the inhibition (as a rule, the change of the read-out against control, counted positive when it falls) is inactive: -3.7%. As for `CCOc1ccc(NC2OC(C)C(O)C(O)C2O)c([N+](=O)[O-])c1` (centres undefined), the figure is inactive: -2.79%.

Turning to `CC1(C)CC(O)(CNCc2ccc3c(c2)OCO3)CCO1` (centres undefined), the inhibition was inactive: 9.6%.

For `COc1ccc2c3c([nH]c2c1)C1(NCC3)C(=O)Nc2ccccc21` (centres undefined), the inhibition was inactive: 3.02%.

In the case of `Cn1nc(-c2ccc(Cl)cc2)nc2c(=O)n(C)c(=O)nc1-2`, the inhibition was inactive: -131%.

Turning to `COc1ccccc1/C=C/CN1CCN(Cc2ccc(F)cc2)C(CCO)C1` (centres undefined), the inhibition was inactive: 2.58%. With `NC(=O)c1ncn([C@@H]2O[C@H](CO)[C@@H](O)[C@H]2O)c1O`, the inhibition is inactive: 1.91%. The result for `COc1ccccc1-c1ccc(/C=C2/C=C(CC(C)C)OC2=O)o1` reads inactive: -105%. Consider `O=C(OCC1CCCN2CCCCC12)c1ccc2c(c1)OCO2` (centres undefined), for which the inhibition was inactive: -3.97%.

`CC1(C)C(=O)OC(/C=C\c2ccccc2)C(C)(C)C1=O` (centres undefined): the inhibition is inactive: -5.97%. The result for `CCc1cc(C(N)=S)ccn1` reads inactive: 2.48%. As for `Cc1ccc2c(c1)c(=O)c1c3n2CCN(C(=O)CCl)C3CC1` (centres undefined), the figure is inactive: -8.58%. The result for `COc1cc(C(=O)OCCCN(C)C)cc(OC)c1OC` reads inactive: 2.44%; that for `COc1ccc2c(c1OC)C(C1c3c(cc4c(c3OC)OCO4)CCN1C)OC2=O` (centres undefined), inactive: -13.9%; that for `CCOc1ccc(CC2c3cc(OCC)c(OCC)cc3CCN2C(=O)CN2CCN(C)CC2)cc1OCC` (centres undefined), inactive: -1.81%. For `COC(=O)c1[nH]c2ccc(F)cc2c1NC(=O)C1=COCCO1`, the inhibition was inactive: 0.192%. As for `O=C(NCCO)c1ccc2[nH]c3ccccc3c2c1`, the figure is inactive: 1.28%; as for `COc1ccc(CN2CCCC(C(=O)c3ccc(Cl)cc3)C2)cc1Cn1cccn1` (centres undefined), inactive: 1.02%. The result for `CC(=O)[C@@]1(O)CC[C@H]2[C@@H]3CCC4=CC(=O)CC[C@]4(C)[C@H]3[C@@H](O)C[C@@]21C` reads inactive: 5.17%; that for `COc1cc(C)nc(-n2nc(C)cc2OC)n1`, inactive: 5.35%; that for `CS(=O)(=O)Nc1ccc([N+](=O)[O-])cc1Oc1ccccc1`, inactive: -9.28%. As for `Cc1coc2cc3oc(=O)c(CCC(=O)O)c(C)c3cc12`, the figure is inactive: -8.02%; as for `NS(=O)(=O)c1cc2c(cc1Cl)NCNS2(=O)=O`, inactive: -9.56%.

Consider `CC(C)Cn1c(=S)[nH]c2cc(C(=O)O)ccc2c1=O`, for which the inhibition was inactive: -8.48%.

Consider `NC(N)=N/N=C/c1c(Cl)cccc1Cl`, for which the inhibition is inactive: -8.31%. As for `O=c1[nH]c(=O)n([C@H]2C[C@H](O)[C@@H](CO)O2)cc1F`, the figure is inactive: -5.36%; as for `O=C(N1CCCC1)C12CC3CC(C1)CC(C(=O)N1CCCC1)(C3)C2`, inactive: -7.19%; as for `CS(=O)(=O)Nc1cccc(C(=O)CC2(O)C(=O)Nc3ccc(Br)cc32)c1` (centres undefined), inactive: 2.32%.

`COC1=CC(=O)CC(C)C12Oc1c(Cl)c(OC)cc(OC)c1C2=O` (centres undefined): the inhibition was inactive: -4.02%. The result for `O=C(/C=C/c1c[nH]c2ccccc12)c1cccc2ccccc12` reads inactive: -25.7%. In the case of `CCc1cc(=O)oc2cc(OCc3nn[nH]n3)ccc12`, the inhibition is inactive: -15.2%. Turning to `CC(=O)Oc1cc(C(C)C)c(OCCN(C)C)cc1C`, the inhibition is inactive: -0.396%.

Take `COc1ccc2cc[nH]c2c1`: the inhibition was inactive: 0.11%. The result for `CSc1ccc(/C=N/N2CCN(Cc3ccc(C)cc3C)CC2)cc1` reads inactive: -3.08%; that for `C[C@H](NC(=O)Nc1ccccc1F)C(=O)O`, inactive: -8.47%; that for `C[N+]12CCC(CC1)C(OC(=O)C(O)(c1ccccc1)c1ccccc1)C2` (centres undefined), inactive: 5.56%. The result for `CC(=O)N1CCn2c3c(c4cc(C)ccc42)CCCC31` (centres undefined) reads inactive: -75.6%; that for `CC(C)OC(=O)CC12CN3CN(C1)CC(CC(=O)OC(C)C)(C3)C2=O`, inactive: -5.5%. As to `Cc1ccc(P(=O)(CSC(=N)N)c2ccc(C)cc2)cc1`, the inhibition is inactive: 10.8%.

For the compound `CC1(C)CC(C(CC(=O)O)c2ccccc2)CCO1` (centres undefined), the inhibition was inactive: -2.72%. The result for `CC(=O)[C@H]1CC[C@H]2[C@@H]3CCC4=CC(=O)CC[C@]4(C)[C@H]3[C@H](O)C[C@]12C` reads inactive: -1.41%; that for `O=C(c1cc2cc(Br)ccc2o1)N1CCCC1`, inactive: -8.1%; that for `Cn1cc(/C=C/C(=O)c2ccccc2)c2ccccc21`, inactive: -14.1%. As for `COc1ccc(-c2c3c(=O)n(C)c(=O)n(C)c3cn2C2CCCCC2)cc1`, the figure is inactive: -8.93%; as for `C[C@H]1C[C@H]2[C@@H]3CCC4=CC(=O)C=C[C@]4(C)[C@@]3(Cl)[C@@H](O)C[C@]2(C)[C@@]1(O)C(=O)CO`, inactive: 1.9%; as for `COc1cccc2cc(-c3ccccc3)c(=O)oc12`, inactive: 2.99%. As for `COc1cc2nc(N3CCN(C(=O)C4CCCO4)CC3)nc(N)c2cc1OC` (centres undefined), the figure is inactive: 44.1% and inactive: 30.3%. For `CS(=O)(=O)Oc1ccc2c(c1)O/C(=C\C=C\c1ccccc1)C2=O`, the inhibition is inactive: -125%. As for `Nc1ncnc2c1ncn2C1OC(CO)C(O)C1O` (centres undefined), the figure is inactive: -0.087%; as for `CCCCC[C@H](O)/C=C/[C@@H]1[C@@H](C/C=C\CCCC(=O)O)[C@H]2CO[C@@H]1C2`, inactive: -6.4%. With `COc1ccc(O)c(C(=O)/C=C/c2cc3ccccc3o2)c1`, the inhibition was inactive: -5.81%. The result for `O=c1[nH]cc(F)c(=O)[nH]1` reads inactive: -2.47%; that for `CCc1cc2c3c(c(=O)oc2cc1O)CCCC3`, inactive: 5.35%; that for `CCNC(=S)N1CCN(CCN2C(=O)c3cccc4cccc(c34)C2=O)CC1`, inactive: 1.33%. Turning to `CC(=O)c1cccc(NC(=O)N[C@@H](CC(C)C)C(=O)O)c1`, the inhibition was inactive: 0.413%. As to `CC1(C(=O)O)CCC(C(=O)NC2CCCCCC2)C1(C)C` (centres undefined), the inhibition is inactive: -2.34%. As for `N/C(=N/OS(=O)(=O)c1ccc([N+](=O)[O-])cc1)c1ccncc1`, the figure is inactive: 2.58%; as for `COc1cc2c(cc1O)CC[C@@H]1[C@@H]2CC[C@]2(C)[C@@H](O)CC[C@@H]12`, inactive: 2.28%.

On to `NS(=O)(=O)c1ccc(CCNC(=O)C2CCCN2C(=O)OCc2ccccc2)cc1` (centres undefined), for which the inhibition is inactive: 0.667%. The result for `Clc1ccccc1CN1CCc2sccc2C1` reads inactive: -5.04%; that for `O=C(/C=C/c1ccccc1)NC(=O)c1ccccc1O`, inactive: -4.92%; that for `C=CCNc1nc2c(c(=O)n(C)c(=O)n2C)n1CC(=C)C`, inactive: 3.2%. As for `COc1ccc2nc(C)cc(Nc3ccccc3O)c2c1`, the figure is inactive: 35.3%; as for `CN(C)CCCN1c2ccccc2CCc2ccc(Cl)cc21`, inactive: 16%; as for `CC1(C)OC2OC(C(=O)N/N=C/c3ccccc3F)C3OC(C)(C)OC3C2O1` (centres undefined), inactive: -8.91%. As for `O=C(c1ccc([N+](=O)[O-])cc1)N1CCSC1c1ccccc1Cl` (centres undefined), the figure is inactive: 0.635%; as for `O=C1CC(c2ccc(OCCCCCOc3ccc(C4CC(=O)NC4=O)cc3)cc2)C(=O)N1` (centres undefined), inactive: 0.883%. Regarding `CC(C)CC(=O)NC(NC(=O)CC(C)C)c1cccc([N+](=O)[O-])c1`, the inhibition is inactive: -6.94%. Turning to `O=C(/C=C/c1ccco1)Nc1ccccc1C(=O)O`, the inhibition was inactive: -76.5%. The result for `c1coc(-c2nnc3n2C2(CCCC2)Cc2ccccc2-3)c1` reads inactive: -1.46%; that for `CCCCCCC(=O)N(O)C1CC(=O)N(Cc2ccccc2)C1=O` (centres undefined), inactive: -13.2%. Regarding `O=C(CN1C(=O)c2ccccc2S1(=O)=O)Nc1ccccc1`, the inhibition is inactive: -5.83%.

On to `COc1cc2c(cc1OC)-c1nnc(C)n1C(C)(C)C2`, for which the inhibition is inactive: -0.769%. For the compound `CCOCC(=O)Nc1ccccc1C(=O)N1CCOCC1`, the inhibition was inactive: -4.04%. The result for `O=C(O)/C=C/c1cccc(OCc2ccccc2)c1` reads inactive: -1.88%; that for `C#C[C@]1(O)CC[C@H]2[C@@H]3CCc4cc(OC)ccc4[C@H]3CC[C@@]21C`, inactive: -9.72%; that for `CCOC(=O)Nc1ccc2c(c1)N(C(=O)CCN1CCOCC1)c1ccccc1S2`, inactive: 0.165%. The result for `O=C(O)CCn1c(=S)n(CCC(=O)O)c2ccccc21` reads inactive: -0.306%. As for `CC1(CC(=O)Nc2ccccc2)NC(=S)N(c2ccccc2)N1` (centres undefined), the figure is inactive: -0.205%; as for `CN=C(NC#N)NCCSCc1nc[nH]c1C`, inactive: -0.437%; as for `CCC(C)NCCOCCOc1ccc(Cl)c2ccccc12` (centres undefined), inactive: 37.3%. With `CCOC(=O)c1cnc2ccccc2c1NCCO`, the inhibition is inactive: 10.9%.

For `COc1ccc(-c2csc(-c3cccnc3)n2)cc1C`, the inhibition was inactive: -4.39%. As for `COc1ccc(C2(CCN=Cc3ccc(N(C)C)cc3)CCOC(C)(C)C2)cc1` (centres undefined), the figure is inactive: -21.1%; as for `COc1ccc(C(=O)Nc2ccccc2C(=O)NCCCn2ccnc2)cc1`, inactive: 0.256%; as for `CC(C)CC(NC(=O)C(NC(=O)OC(C)(C)C)C(C)C)C(=O)NC(CCC(=O)OCc1ccccc1)C(N)=O` (stereo not drawn) (Boc-Val-Leu-Glu(OBn)-NH2; configuration not given here), inactive: -6.12%.

With `O=C(CC1SC(=O)NC1=O)Nc1ccc(Cl)cc1` (centres undefined), the inhibition is inactive: -7.21%. As for `COc1ccc(Br)cc1C(=O)Nc1ccc(C(=O)O)cc1`, the figure is inactive: -5.54%; as for `COc1cc([C@@H]2c3cc4c(cc3[C@H](O)[C@H]3COC(=O)[C@H]23)OCO4)cc(OC)c1OC`, inactive: -89.4%; as for `COc1ccc(NC(=O)CC(c2ccccc2)c2ccco2)cc1` (centres undefined), inactive: -8.33%. Regarding `COc1cc(OC)c2c(C)c(Cl)c(=O)oc2c1`, the inhibition is inactive: -4.97%.

Consider `CCOc1ccc2oc(-c3ccccc3)c(C(=O)O)c2c1`, for which the inhibition was inactive: -1.63%. As for `CC[C@H]1CN2CCc3cc(OC)c(OC)cc3[C@@H]2C[C@@H]1C[C@H]1NCCc2cc(OC)c(OC)cc21`, the figure is inactive: 4.86%; as for `CCN(CC)CCNC(=O)c1ccc(NC(C)=O)cc1`, inactive: 0.0885% and inactive: -5.25%.
